From paper PMC5913134, “The IL-33-PIN1-IRAK-M axis is critical for type 2 immunity in IL-33-induced allergic airway inflammation” (Nature Communications, 2018)
Results are given in words; binding and its absence hold for the method and conditions named. In cells and extracts the contact can be indirect. Some results given as binding are weak or reduced against the parent protein; the word gives no strength.

By UniProt entry, the sequences of proteins in these tests, tags left out.
UniProt Q13526: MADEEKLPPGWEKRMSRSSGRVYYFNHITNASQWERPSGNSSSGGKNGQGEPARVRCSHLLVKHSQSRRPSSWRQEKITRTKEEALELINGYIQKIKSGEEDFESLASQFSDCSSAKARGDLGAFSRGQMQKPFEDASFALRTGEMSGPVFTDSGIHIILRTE

Assays:
GST-PIN1 [1] = molecular target: GST-PIN1 (UniProt Q13526); assay: condition: only cells treated with LPS (100 ng/ml, 1 h) instead of IL-33; pull-down; as a1, but extract of DC2.4 cells treated with LPS (100 ng/ml, 1 h); only the target purified
GST-PIN1 [2] = molecular target: GST-PIN1 (UniProt Q13526); assay: pull-down; GST-PIN1 on Glutathione-Sepharose 4B mixed with 1 mg total protein extract of DC2.4 cells treated with IL-33 (100 ng/ml, 1 h), 3 h at 4 °C; 150 mM NaCl, 20 mM Tris-HCl pH 8, 1 mM MgCl2, 0.1% NP-40; eluted with reduced glutathione, blot or IP for IRAK-M; only the target purified

binding (GST-PIN1 [1]): no binding
binding (GST-PIN1 [2]): binds
B1: interleukin receptor associated kinase M (IRAK-M), endogenous in DC2.4 cells (protein, UniProt Q8K4B2 1-609)
chain: MAGRCGARGALSPQLLLFDLPPALLGELCGILDSCDGPLGWRGLAERLSNSWLDVRHIEKYVNQGKSGTRELLWSWAQKNKTIGDLLEVLQDMGHQRAIHLIINYGVSWTPSVQTHHELPFPSFPPEVKHACRENDPGPLEPANVTVDNVLVPEHNEKGTLQKTPISFQSILEGTKHFHKDFLIGEGEIFEVYRVDIRNQAYAVKLFKQEKKMQLKKHWKRFLSELEVLLLFRHPHILELAAYFTETEKLCLVYPYMSNGTLFDRLQCTNGTTPLSWHVRISVLIGIAKAIQYLHNTQPCAVICGNVSSANILLDDQLQPKLTDFAAAHFRPNLEQQSSTINMTGGGRKHLWYMPEEYIRQGRLSVKTDVYSFGIVIMEVLTGCKVVLDDPKHVQLRDLLMELMEKRGLDSCLSFLDRKIPPCPRNFSAKLFSLAGRCVATKAKLRPTMDEVLSSLESTQPSLYFAEDPPTSLKSFRCPSPLFLDNVPSIPVEDDENQNNHSVPPKEVLGTDRVTQKTPFECSQSEVTFLGLDRNRGNRGSEADCNVPSSSHEECWSPELVAPSQDLSPTVISLGSSWEVPGHSYGSKPMEKRCSSGLFCSEHEQSKKQ
